Measurements published in PubChem BioAssay AID330 (DTP/NCI, 2004).
The list shows only some results of the screen, not a fair sample: it gathers tests that were run many times, whatever their T/C, doses with no T/C, and many T/C values between a quarter and a half above the control. Further doses and runs are listed elsewhere. T/C gives the treated animals as a percentage of the vehicle group. Some doses have a count of surviving animals in place of a T/C: the source holds a T/C of zero for them, seemingly a mark for toxic or unscored doses. Some doses without a T/C left all or most animals alive at the check, yet need not have been tolerated: survival well below the control is almost never listed, so the zero probably covers shortened survival too. Survivors were counted at the toxicity check, usually on the fifth day, unless a day is given; later deaths do not show. Schedules are NCI's codes, read here as Q, the interval in days (D) or hours (H), X, the number of doses. Some doses were run more than once; the results are listed from low to high. Some structures stand for samples that the source files as different forms (salt, stereo form or complex); doses refer to the form tested. Where survival is the endpoint, the PubChem record calls one and a half times the control and up active, and a quarter to a half above the control has no call in these data; cut-offs in other NCI protocols can differ. Marks such as (2×) say how often a value occurs here. Some T/C values carry the count of animals alive at the toxicity check (mostly the fifth day); without a count, all were alive then.

Test system: P388 leukemia ip, CD2F1 mice, survival T/C
Test: NCI In Vivo Anticancer Drug Screen. Data for tumor model P388 Leukemia (intraperitoneal) in CD2F1 (CDF1) mice
Conditions: T/C endpoint: median survival time, higher T/C = longer survival
[1] = dose: 50.0 mg/kg/injection, schedule: Q01DX009 (ip), vehicle: saline
[2] = dose: 120.0 mg/kg/injection, schedule: Q01DX005 (ip), vehicle: saline with Tween-80
[3] = dose: 240.0 mg/kg/injection, schedule: Q01DX005 (ip), vehicle: saline with Tween-80
[4] = dose: 50.0 mg/kg/injection, schedule: Q01DX005 (ip), vehicle: Klucel (hydroxypropylcellulose) (HPC)
[5] = dose: 100.0 mg/kg/injection, schedule: Q01DX005 (ip), vehicle: Klucel (hydroxypropylcellulose) (HPC)
[6] = dose: 200.0 mg/kg/injection, schedule: Q01DX005 (ip), vehicle: Klucel (hydroxypropylcellulose) (HPC)
[7] = dose: 50.0 mg/kg/injection, schedule: Q01DX005 (ip), vehicle: saline with Tween-80
[8] = dose: 200.0 mg/kg/injection, schedule: Q01DX005 (ip), vehicle: saline with Tween-80
[9] = dose: 400.0 mg/kg/injection, schedule: Q04DX003 (ip), vehicle: saline
[10] = dose: 100.0 mg/kg/injection, schedule: Q01DX009 (ip), vehicle: saline with Tween-80
[11] = dose: 200.0 mg/kg/injection, schedule: Q01DX009 (ip), vehicle: saline with Tween-80
[12] = dose: 200.0 mg/kg/injection, schedule: Q01DX009 (ip), vehicle: suspension in saline
[13] = dose: 200.0 mg/kg/injection, schedule: Q01DX005 (ip), vehicle: saline

In the case of `O=NNc1ccc(Oc2ccccc2)cn1`, the T/C (dose: 1.56 mg/kg/injection, schedule: Q01DX009 (ip), vehicle: saline) is reported as 127 % of control, the T/C (dose: 3.12 mg/kg/injection, schedule: Q01DX009 (ip), vehicle: saline) is reported as 134 and 145 % of control and the T/C (dose: 6.25 mg/kg/injection, schedule: Q01DX009 (ip), vehicle: saline) is reported as 148 % of control. The survivor count (dose: 25.0 mg/kg/injection, schedule: Q01DX009 (ip), vehicle: saline) was 6 of 6 and the survivor count [1] was 0 of 6.

`Nc1nc(Cl)c(N=Nc2ccccc2)c(=O)[nH]1` was tested, and the survivor count [2] was 5 of 6 and 6 of 6 and the survivor count [3] was 6 of 6.

For `c1ccc2c(c1)O[As](O[As]1Oc3ccccc3O1)O2`, the T/C (dose: 5.0 mg/kg/injection, schedule: Q01DX009 (ip), vehicle: saline with Tween-80) was 130 % of control, the T/C (dose: 10.0 mg/kg/injection, schedule: Q01DX009 (ip), vehicle: saline with Tween-80) was 141 and 148 % of control and the T/C (dose: 20.0 mg/kg/injection, schedule: Q01DX009 (ip), vehicle: saline with Tween-80) was 147 % of control.

In the case of `O=[N+]([O-])c1c(Cl)nc(-c2ccccc2)nc1Cl`, the survivor count [4] is reported as 0 of 5, the survivor count [5] is reported as 0 of 5 and the survivor count [6] is reported as 0 of 5.

In the case of `CCC/C(=N\NC(=S)N1CCN(c2ccccn2)CC1)c1ccccn1`, the T/C (dose: 25.0 mg/kg/injection, schedule: Q01DX005 (ip), vehicle: saline with Tween-80) is reported as 126 % of control (2×), the T/C [7] is reported as 126 % of control and the survivor count [7] is reported as 3 of 6. The survivor count (dose: 100.0 mg/kg/injection, schedule: Q01DX005 (ip), vehicle: saline with Tween-80) was 0 of 6 and the survivor count [8] was 0 of 6.

`O=c1cc(C(F)(F)F)c2cc3c(cc2o1)NCCC3` was tested, and the survivor count [3] was 6 of 6.

For `C1CC2CC3CCCCN3COC2C1` (stereo unspecified), the survivor count [9] was 3 of 6.

For `O=C(O)/C=C/C(=O)N1Cc2cc3ccccc3nc2C1`, the survivor count (dose: 4.0 mg/kg/injection, schedule: Q01DX009 (ip), vehicle: saline with Tween-80) was 6 of 6 and the T/C (dose: 6.25 mg/kg/injection, schedule: Q01DX009 (ip), vehicle: saline with Tween-80) was 131 % of control.

With `NC1=C(O)C(=O)C(c2ccccc2O)O1` (stereo unspecified) the survivor count (dose: 60.0 mg/kg/injection, schedule: Q01DX005 (ip), vehicle: suspension in saline) was 5 of 6.

`CN(C)Sc1ccc(Cl)cc1[N+](=O)[O-]` was tested, and the survivor count [1] was 5 of 6.

With `O=[N+]([O-])c1ccc2nc(CCl)[nH]c2c1` the survivor count [10] was 5 of 6, the survivor count [11] was 3 of 6 and the survivor count (dose: 400.0 mg/kg/injection, schedule: Q01DX009 (ip), vehicle: saline with Tween-80) was 0 of 6.

`CN1c2ccccc2S(=O)(=O)n2c(CCc3ccccc3)nnc21` was tested, and the survivor count [2] was 6 of 6.

For `CCOC(=O)N(CCF)N=O`, the T/C (dose: 12.5 mg/kg/injection, schedule: Q01DX001 (ip), vehicle: saline with Tween-80) was 137 % of control [5 of 6 alive] and the survivor count (dose: 25.0 mg/kg/injection, schedule: Q01DX001 (ip), vehicle: saline with Tween-80) was 0 of 6.

`CCSc1ccc2c(cc1=O)C(N)CCc1cc(OC)c(OC)c(OC)c1-2` (stereo unspecified) was tested, and the survivor count (dose: 200.0 mg/kg/injection, schedule: Q01DX009 (ip), vehicle: Klucel (hydroxypropylcellulose) (HPC)) was 6 of 6.

For `CC(C)Oc1ccc(C(=O)NS(=O)(=O)c2ccc(N=CC3C(=O)N(c4ccccc4)N(c4ccccc4)C3=O)cc2)cc1`, the survivor count (dose: 50.0 mg/kg/injection, schedule: Q01DX009 (ip), vehicle: Klucel (hydroxypropylcellulose) (HPC)) was 6 of 6.

`O=C(O)c1c(Cl)c(Cl)c(Cl)c(Cl)c1-c1c2cc(I)c(=O)c(I)c-2oc2c(I)c(O)c(I)cc12` was tested, and the survivor count [8] was 3 of 5 and the survivor count (dose: 200.0 mg/kg/injection, schedule: Q01DX009 (ip), vehicle: saline) was 3 of 6.

In the case of `CCC(C)C1NC(=O)C2CCCN2C(=O)C(CC2CO2)OC(=O)CCNC(=O)C(C)N(C)C(=O)C(C(C)C)N(C)C1=O` (stereo unspecified), the survivor count (dose: 6.25 mg/kg/injection, schedule: Q01DX005 (ip), vehicle: water) is reported as 0 of 6, the survivor count (dose: 12.5 mg/kg/injection, schedule: Q01DX005 (ip), vehicle: water) is reported as 0 of 6 and the survivor count (dose: 25.0 mg/kg/injection, schedule: Q01DX005 (ip), vehicle: water) is reported as 0 of 6. For the same compound, the survivor count (dose: 50.0 mg/kg/injection, schedule: Q01DX005 (ip), vehicle: water) was 0 of 6, the survivor count (dose: 100.0 mg/kg/injection, schedule: Q01DX005 (ip), vehicle: water) was 0 of 6 and the survivor count (dose: 200.0 mg/kg/injection, schedule: Q01DX005 (ip), vehicle: water) was 0 of 6.

In the case of `Oc1ccc2c(c1)OC1(c3ccccc3)CC2N=CN1` (stereo unspecified), the survivor count [12] is reported as 1 of 6.

For `COC(=O)c1ccccc1NC(c1ccccn1)c1ccc2cccnc2c1O` (stereo unspecified), the survivor count (dose: 200.0 mg/kg/injection, schedule: Q01DX009 (ip), vehicle: DMSO) was 4 of 6 and the survivor count (dose: 400.0 mg/kg/injection, schedule: Q01DX009 (ip), vehicle: DMSO) was 3 of 6.

With `O=C(CC(O)(C(F)(F)F)C(F)(F)F)c1cccs1` the T/C (dose: 200.0 mg/kg/injection, schedule: Q04DX003 (ip), vehicle: saline with Tween-80) was 125 % of control [5 of 6 alive].

With `CCCCN1CSC2CCCCC21` (stereo unspecified) the T/C [13] was 130 % of control.

In the case of `CN(N=O)C1=NC(C)(CCl)P(=O)(NNc2ncccn2)O1` (stereo unspecified), the survivor count (dose: 240.0 mg/kg/injection, schedule: Q01DX005 (ip), vehicle: saline) is reported as 0 of 6.

For `C=C(CN(CC(=C)C(=O)c1ccccc1)C(C)(C)C)C(=O)c1ccccc1`, the survivor count (dose: 50.0 mg/kg/injection, schedule: Q01DX009 (ip), vehicle: saline with Tween-80) was 2 of 6, the survivor count [10] was 0 of 6 and the survivor count [11] was 0 of 6.

For `CS(=O)(=O)c1nc(N)c2nnn(C3OC(CO)C(O)C3O)c2n1` (stereo unspecified), the T/C (dose: 25.0 mg/kg/injection, schedule: Q01DX005 (ip), vehicle: saline) was 125 % of control, the T/C (dose: 50.0 mg/kg/injection, schedule: Q01DX005 (ip), vehicle: saline) was 138 % of control and the T/C (dose: 100.0 mg/kg/injection, schedule: Q01DX005 (ip), vehicle: saline) was 138 % of control (2×). For the same compound, the T/C [13] was 138 % of control and the T/C (dose: 400.0 mg/kg/injection, schedule: Q01DX005 (ip), vehicle: saline) was 127 % of control.

For `O=C1C=CC(=O)c2nc3ccccc3nc21`, the survivor count (dose: 12.5 mg/kg/injection, schedule: Q01DX009 (ip), vehicle: distilled water + Tween-80) was 2 of 6, the survivor count (dose: 25.0 mg/kg/injection, schedule: Q01DX009 (ip), vehicle: distilled water + Tween-80) was 2 of 6 and the survivor count (dose: 50.0 mg/kg/injection, schedule: Q01DX009 (ip), vehicle: distilled water + Tween-80) was 1 of 6. For the same compound, the survivor count (dose: 100.0 mg/kg/injection, schedule: Q01DX009 (ip), vehicle: distilled water + Tween-80) was 0 of 6.

For `O=C(C=C(C(F)(F)F)C(F)(F)F)c1ccc(Cl)c2ccccc12`, the survivor count (dose: 50.0 mg/kg/injection, schedule: Q04DX003 (ip), vehicle: saline with Tween-80) was 6 of 6.

In the case of `CC(=O)Nc1ccc(S(=O)(=O)CC(N)=O)cc1`, the survivor count (dose: 100.0 mg/kg/injection, schedule: Q01DX009 (ip), vehicle: suspension in saline) is reported as 6 of 6 and the survivor count [12] is reported as 6 of 6.

For `CNCC1c2ccccc2CSc2c(OC)cccc21` (stereo unspecified), the survivor count [4] was 3 of 6, the survivor count [5] was 0 of 6 and the survivor count [6] was 0 of 6.

In the case of `CN(C)CCNC1c2ccccc2CCc2ccccc21`, the survivor count [13] is reported as 0 of 6.

For `C1=CCONC1`, the survivor count [9] was 0 of 6.
